Primary screen of a compound library

Mtb glucose medium: 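Phenotypic screen: M. tuberculosis growth, glucose 7H9 medium, 3 days; the read-out is not stated. Concentration: 500 µM. Direction is inferred from retests: higher values go with more growth inhibition. Size under these conditions: about 18,000 compounds, about 1,400 of them at 50% or above in at least one test.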
Mtb cholesterol medium: 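Growth of Mycobacterium tuberculosis over 4 days (cholesterol / DPPC medium with tyloxapol); the read-out is not stated. Compounds at 500 µM. Higher reads as more growth inhibition (inferred: compounds with an IC50 in retests scored well above the rest). Size under these conditions: about 18,000 compounds, about 900 of them at 50% or above in at least one test.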

The filed quantity is “Percent Effect” (%). The controls that fix the scale are not given in the record; negative values are as filed. Compounds were drawn at random from those tested, without regard to their results.

With COc1ccccc1C(O)CN (stereo unspecified) the screen gave Mtb glucose medium: 24.49%; Mtb cholesterol medium: -0.2127%. N#Cc1ccccc1CN1CCC(CO)CC1 read Mtb glucose medium: 27.21%; Mtb cholesterol medium: 8.98%. Result for Cc1cc(NC(=O)NCCN2CCCC2)no1 was Mtb glucose medium: 11.94%; Mtb cholesterol medium: 9.783%. CCNc1ncc(C(=O)N[C@@H]2CC[C@@H](N)C2)cn1 read Mtb glucose medium: 12.46%; Mtb cholesterol medium: 4.71%. Result for CC(NC(=O)c1ccc(Cl)s1)c1ncon1 (stereo unspecified) was Mtb glucose medium: 4.264%; Mtb cholesterol medium: -0.05983%. With COC(=O)c1oc(CSc2cnn[nH]2)cc1C the screen gave Mtb glucose medium: 36.84%; Mtb cholesterol medium: 35.79%. With CCn1ncnc1CN1CC(Oc2ccccc2)C1 the screen gave Mtb glucose medium: 68.6%; Mtb cholesterol medium: 43.77%.

With NS(=O)(=O)c1ccccc1-c1ccccc1 the screen gave Mtb glucose medium: 23.85%; Mtb cholesterol medium: 21.97%. For CCC(N)(CC)CNS(=O)(=O)c1cn(C)cn1 the result was Mtb glucose medium: -9.277%; Mtb cholesterol medium: -15.69%. With Cc1ccnc2c1CCN2 the screen gave Mtb glucose medium: -5.867%; Mtb cholesterol medium: -7.209%. For CSc1ccc(CN(C)CCC(N)=O)cc1 the result was Mtb glucose medium: 8.112%; Mtb cholesterol medium: -3.919%. For O=C(CCN1CCC[C@H]1CO)Nc1ccccc1 the result was Mtb glucose medium: 14.09%; Mtb cholesterol medium: 9.396%. For N#CCCCSc1nnc(N)s1 the result was Mtb glucose medium: 4.432%; Mtb cholesterol medium: 45.92%. With COCCCN(C)C(C(N)=O)c1ccccc1 (stereo unspecified) the screen gave Mtb glucose medium: -2.24%; Mtb cholesterol medium: -3.898%.

Result for CN(CC(=O)Nc1sccc1C(N)=O)Cc1cccs1 was Mtb glucose medium: 74.28%; Mtb cholesterol medium: 67.4%. For O=C(c1cc(C2CC2)n[nH]1)N1CCCC(O)(CO)CC1 (stereo unspecified) the result was Mtb glucose medium: -1.284%; Mtb cholesterol medium: -12.49%. Result for CC1CN(C)CCN1Cc1ccc(S(=O)(=O)N(C)C)o1 (stereo unspecified) was Mtb glucose medium: -3.861%; Mtb cholesterol medium: -4.054%. Result for N#Cc1c(F)cccc1OCC(=O)NCC1CCCO1 (stereo unspecified) was Mtb glucose medium: 20.64%; Mtb cholesterol medium: 3.864%. With CSCC1CCN(CCC(=O)Nc2cccnc2)CC1 the screen gave Mtb glucose medium: 6.056%; Mtb cholesterol medium: 7.815%. CCNCCCNCc1ccc2c(c1)n(C)c(=O)n2C read Mtb glucose medium: 8.005%; Mtb cholesterol medium: 4.119%. Result for C=Cc1ccc(OC)nc1 was Mtb glucose medium: 8.023%; Mtb cholesterol medium: -0.9451%.

For CC[C@@H](O)CN1CCN(C(C)COC)CC1 (stereo partly specified) the result was Mtb glucose medium: 8.952%; Mtb cholesterol medium: 3.35%. For COc1ccc2c(c1)CCN2C(=O)C(C)(C)C#N the result was Mtb glucose medium: 68.31%; Mtb cholesterol medium: 80.64%. CCC(C)NC(=O)NC1CCN(c2ccccn2)CC1 (stereo unspecified) read Mtb glucose medium: 30.3%; Mtb cholesterol medium: 1.066%. For N[C@H]1CCN(C(=O)CCc2cc(F)ccc2F)C1 the result was Mtb glucose medium: 21.49%; Mtb cholesterol medium: 6.322%. With O=C(NCCOCc1ccccc1)c1ccco1 the screen gave Mtb glucose medium: 60.73%; Mtb cholesterol medium: 51.04%. With Cc1ncsc1C(=O)NCC1CN(CC(C)C)CCO1 (stereo unspecified) the screen gave Mtb glucose medium: 16.35%; Mtb cholesterol medium: -3.849%. Result for Cc1cccc(C2(O)CCNCC2)c1C was Mtb glucose medium: 14.65%; Mtb cholesterol medium: 3.315%.

For NC(=O)CN1CCCN(c2nccs2)CC1 the result was Mtb glucose medium: 13.89%; Mtb cholesterol medium: 0.07824%. With CC(CN)S(N)(=O)=O (stereo unspecified) the screen gave Mtb glucose medium: 3.418%; Mtb cholesterol medium: -1.77%. With C=C(C)CN1CCC(NC(=O)NC2CC2)CC1 the screen gave Mtb glucose medium: 5.367%; Mtb cholesterol medium: -0.6099%. COC(=O)CN(Cc1ccccc1)C(=O)N(C)C gave Mtb glucose medium: -2.251%; Mtb cholesterol medium: -7.025%. CC(C)CCNCCS(=O)(=O)N1CCSCC1 read Mtb glucose medium: -7.885%; Mtb cholesterol medium: -29.66%. CCC1COCCN1C(=O)c1nccc2ccccc12 (stereo unspecified) gave Mtb glucose medium: 20.1%; Mtb cholesterol medium: 18.9%. Result for Oc1cc(C(F)(F)F)ccn1 was Mtb glucose medium: -2.963%; Mtb cholesterol medium: -8.244%.

Result for CCOc1ccccc1C(=O)N1CCCN(C)CC1 was Mtb glucose medium: 19.95%; Mtb cholesterol medium: 6.469%. For CN1N=C(C(=O)NCCOc2ccccc2)CCC1=O the result was Mtb glucose medium: 34.58%; Mtb cholesterol medium: 20.94%. Result for COC(=O)c1csc(NC(=O)CCn2cccn2)c1 was Mtb glucose medium: 57.84%; Mtb cholesterol medium: 38.86%. O=C1CC(N2CCSCC2)C(=O)N1c1cccc(Cl)c1 (stereo unspecified) read Mtb glucose medium: -2.391%; Mtb cholesterol medium: -5.339%. Result for COc1cc(-c2cnn(CCC(N)=O)c2)c(Cl)cn1 was Mtb glucose medium: 24.77%; Mtb cholesterol medium: -10.76%.

Source: ChEMBL document CHEMBL3988442, “University of Dundee, Small-Polar-MMV Screening Library” (2021).